Record: PubChem BioAssay AID1224828 (NIAID, 2016)
In all, the deposit lists about 17,000 reagents; below is a random part of them. 762 of them (4.5%) count as active. 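Active calls include both raised and lowered p65 entry, mostly lowered; wells with fewer than 50 cells lack a z-score.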 Raw values vary from plate to plate and are shown uncorrected. A number with no mark means an inactive call.

Test: 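Knock-downs that increase or decrease LPS-induced p65 nuclear translocation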 (primary screen)
System: mouse RAW264.7 G9 macrophage reporter cells (GFP-p65, Tnf promoter-mCherry)
Knock-down reagent: siRNA pool against mouse genes, 100 nM
Timing: 2 days siRNA transfection, then 40 min LPS before fixation
Conditions: LPS (Salmonella minnesota R595) at 10 ng/ml
Detection: 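Microscopy ratio of nuclear to perinuclear-ring GFP-p65 signal, scaled to the plate median; gene score is the average of two replicate robust z-scores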
Reading the numbers: p65 translocation robust z-score: higher = more nuclear NF-kappaB p65 after LPS than the plate median; nuclear/cytoplasmic p65 ratio: higher = more nuclear NF-kappaB p65
Rule for the call: 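Active if robust z is above 3.3 (negative regulators) or below -1.56, the Tlr4 control median (positive regulators); activity score 50 or more; control wells not called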
Calls: active = hit (p65 shift raised or lowered); inactive = no clear change

Which result is listed for Irf4?
p65 translocation robust z-score: -0.11; nuclear/cytoplasmic p65 ratio, rep 1: 1.46; nuclear/cytoplasmic p65 ratio, rep 2: 1.37; low cell count flag: enough cells to score

What did the screen give for Pkp3?
p65 translocation robust z-score: 0.73; nuclear/cytoplasmic p65 ratio, rep 1: 1.61; nuclear/cytoplasmic p65 ratio, rep 2: 1.49; low cell count flag: enough cells to score

What did the screen give for Mrpl57?
p65 translocation robust z-score: 0.4; nuclear/cytoplasmic p65 ratio, rep 1: 1.79; nuclear/cytoplasmic p65 ratio, rep 2: 1.7; low cell count flag: enough cells to score

What is on record for Pkn1?
p65 translocation robust z-score: 1.72; nuclear/cytoplasmic p65 ratio, rep 1: 1.82; nuclear/cytoplasmic p65 ratio, rep 2: 1.59; low cell count flag: enough cells to score

What is on record for Or12e7?
p65 translocation robust z-score: -1.58 (active); nuclear/cytoplasmic p65 ratio, rep 1: 1.4; nuclear/cytoplasmic p65 ratio, rep 2: 1.36; low cell count flag: enough cells to score

Which result is listed for Naip2?
p65 translocation robust z-score: 1.29; nuclear/cytoplasmic p65 ratio, rep 1: 1.63; nuclear/cytoplasmic p65 ratio, rep 2: 1.68; low cell count flag: enough cells to score

Which result is listed for Dis3l?
p65 translocation robust z-score: 1.32; nuclear/cytoplasmic p65 ratio, rep 1: 1.59; nuclear/cytoplasmic p65 ratio, rep 2: 1.9; low cell count flag: enough cells to score

Which result is listed for Larp7?
p65 translocation robust z-score: 1.08; nuclear/cytoplasmic p65 ratio, rep 1: 1.77; nuclear/cytoplasmic p65 ratio, rep 2: 1.66; low cell count flag: enough cells to score

For Il10rb, how do the results read?
p65 translocation robust z-score: 1.4; nuclear/cytoplasmic p65 ratio, rep 1: 1.63; nuclear/cytoplasmic p65 ratio, rep 2: 1.54; low cell count flag: enough cells to score

What is on record for Eepd1?
p65 translocation robust z-score: -2 (active); nuclear/cytoplasmic p65 ratio, rep 1: 1.23; nuclear/cytoplasmic p65 ratio, rep 2: 0.955; low cell count flag: enough cells to score

For Clybl, how do the results read?
p65 translocation robust z-score: -0.27; nuclear/cytoplasmic p65 ratio, rep 1: 1.57; nuclear/cytoplasmic p65 ratio, rep 2: 1.71; low cell count flag: enough cells to score

What did the screen give for Or13ae2?
p65 translocation robust z-score: 0.19; nuclear/cytoplasmic p65 ratio, rep 1: 1.63; nuclear/cytoplasmic p65 ratio, rep 2: 1.45; low cell count flag: enough cells to score

What did the screen give for Sardh?
p65 translocation robust z-score: -0.54; nuclear/cytoplasmic p65 ratio, rep 1: 1.46; nuclear/cytoplasmic p65 ratio, rep 2: 1.42; low cell count flag: enough cells to score

For Serinc5, how do the results read?
p65 translocation robust z-score: 0.66; nuclear/cytoplasmic p65 ratio, rep 1: 1.45; nuclear/cytoplasmic p65 ratio, rep 2: 1.64; low cell count flag: enough cells to score

With Pex39, how do the results read?
nuclear/cytoplasmic p65 ratio, rep 1: 1.28; nuclear/cytoplasmic p65 ratio, rep 2: 1.43; low cell count flag: fewer than 50 cells per well; well left out of scoring

With Zbtb8b, what does the deposit list?
nuclear/cytoplasmic p65 ratio, rep 1: 1.33; nuclear/cytoplasmic p65 ratio, rep 2: 1.08; low cell count flag: fewer than 50 cells per well; well left out of scoring

What is on record for S100a13?
p65 translocation robust z-score: -0.42; nuclear/cytoplasmic p65 ratio, rep 1: 1.41; nuclear/cytoplasmic p65 ratio, rep 2: 1.5; low cell count flag: enough cells to score

Limited to “low cell count flag” (2 entries from above):
Pkn1	enough cells to score
Or12e7	enough cells to score (active)

Further results:
What is on record for Steap4?
nuclear/cytoplasmic p65 ratio, rep 1: 1.12; nuclear/cytoplasmic p65 ratio, rep 2: 1.14; low cell count flag: fewer than 50 cells per well; well left out of scoring

With Dennd6a, what does the deposit list?
p65 translocation robust z-score: 0.49; nuclear/cytoplasmic p65 ratio, rep 1: 1.59; nuclear/cytoplasmic p65 ratio, rep 2: 1.43; low cell count flag: enough cells to score

Which result is listed for Kbtbd2?
p65 translocation robust z-score: -0.25; nuclear/cytoplasmic p65 ratio, rep 1: 1.49; nuclear/cytoplasmic p65 ratio, rep 2: 1.42; low cell count flag: enough cells to score

What did the screen give for Ppp1r14bl?
nuclear/cytoplasmic p65 ratio, rep 1: 1.14; nuclear/cytoplasmic p65 ratio, rep 2: 1.51; low cell count flag: fewer than 50 cells per well; well left out of scoring

What is on record for Zfp286?
p65 translocation robust z-score: -2.75 (active); nuclear/cytoplasmic p65 ratio, rep 1: 1.31; nuclear/cytoplasmic p65 ratio, rep 2: 1.13; low cell count flag: enough cells to score

What did the screen give for Boc?
nuclear/cytoplasmic p65 ratio, rep 1: 1.36; nuclear/cytoplasmic p65 ratio, rep 2: 1.54; low cell count flag: fewer than 50 cells per well; well left out of scoring

With Plcd4, what does the deposit list?
p65 translocation robust z-score: 1.14; nuclear/cytoplasmic p65 ratio, rep 1: 1.53; nuclear/cytoplasmic p65 ratio, rep 2: 1.34; low cell count flag: enough cells to score

With Zfp30, how do the results read?
nuclear/cytoplasmic p65 ratio, rep 1: 1.44; nuclear/cytoplasmic p65 ratio, rep 2: 1.2; low cell count flag: fewer than 50 cells per well; well left out of scoring

Which result is listed for Zmym2?
p65 translocation robust z-score: 0.54; nuclear/cytoplasmic p65 ratio, rep 1: 1.66; nuclear/cytoplasmic p65 ratio, rep 2: 1.51; low cell count flag: enough cells to score

For Rpl24, what does the deposit list?
nuclear/cytoplasmic p65 ratio, rep 1: 1.48; nuclear/cytoplasmic p65 ratio, rep 2: 1.26; low cell count flag: fewer than 50 cells per well; well left out of scoring
